Laboratory results: US8143249B2 (Gilead Sciences, Inc., priority 2005, dated 2012)
Some results were stated once for a whole list of compounds, not compound by compound.

Assay: Oral pharmacokinetics/bioavailability of prodrugs vs parent (compound 1) in rats, plasma LC/MS/MS
Type: in vivo, Sprague Dawley rats
Conditions: result in words
Procedure: The following studies were conducted in order to compare the pharmacokinetics of the parent A2B adenosine receptor antagonist and its corresponding prodrug. The parent compound chosen was the compound of formula A in which R^1 is n-propyl, R^2 is ethyl, R^3 is hydrogen, and R^4 is 3-trifluoromethylphenyl; that is:
The studies were carried out in Sprague Dawley rats. The test compounds were administered orally by gavage to groups of three rats using a single oral dose of the test compound at 2 and 30 mg/kg. All oral doses were prepared either as a suspension in DMSO/ethanol/PEG300/0.1% N-methyl-D-glucamine or as a suspension in 0.5% methylcellulose in water. […]
Concentrations of compound 1 and/or the corresponding prodrug in rat plasma were determined by a HPLC tandem mass spectrometric (LC/MS/MS) method. […] Quantification of compound 1 was achieved by mass spectrometry using Multiple Reaction Monitoring (MRM) mode, monitoring the transitions at m/z 447.1>159.1 for compound 1 and 452.1>159.1 for I.S. The quantification limit of the assay was 0.38 ng/mL for the analysis of the oral dose samples and 10 ng/mL during the analysis of the intravenous dose samples using 0.1 mL of plasma.
Non-compartmental pharmacokinetic parameters were determined using a commercial program WinNonLin Professional, Version 4.1 (Pharsight, Mountain View, Calif.). […]

CCCn1c(=O)c2c(nc(-c3cnn(Cc4cccc(C(F)(F)F)c4)c3)n2COC(=O)NCCN(C)C)n(CC)c1=O [Compound 10]
plasma levels of parent compound 1 following oral dosing, compared with oral dosing of the parent itself: lower than those obtained by oral dosing of the parent compound
